No constants are given. Whether binding was seen depends on the method and setting. Some entries that bind do so weakly or less than the wild type.
Molecular target: denatured recombinant HLA-E (HLA-E single protein, heavy chain alone, expressed in BL21 E. coli) (human) (UniProt P13747)
Assay: ELISA: anti-HLA-E capture, HRP-avidin detection of biotinylated peptide; HLA-E heavy chain alone as the reference

By UniProt entry, the sequences of proteins in these tests, tags left out. Residues count along the entry.
UniProt P13747, residues 22-295: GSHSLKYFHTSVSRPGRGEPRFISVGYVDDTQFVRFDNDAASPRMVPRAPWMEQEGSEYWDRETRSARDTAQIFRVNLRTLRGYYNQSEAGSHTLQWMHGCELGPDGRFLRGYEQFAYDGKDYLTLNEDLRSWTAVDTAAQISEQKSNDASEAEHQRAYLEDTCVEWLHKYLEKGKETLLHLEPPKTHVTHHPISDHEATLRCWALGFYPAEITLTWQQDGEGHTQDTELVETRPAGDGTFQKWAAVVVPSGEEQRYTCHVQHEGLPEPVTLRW

binding: binds
B1: biotinylated HLA-A2 leader peptide (SEQ ID NO: 50, …) (peptide)
peptide: NPRKVTAYL
modifications: biotinylated (position not given)
